Measured values as given in PubChem BioAssay AID1347423 (Functional Genomics Laboratory (NCATS/FGL), 2020).
About 210 (0.4%) of roughly 52,000 sequences were called active.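 The calls were made as follows: active = gene whose silencing raises cell survival under the drug, median off-target-corrected z-score across its silencing RNAs 2 or more; inactive = the rest.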 Some of the results follow.

Experiment: Resistance to Poly (ADP-Ribose) Polymerase inhibitor: Gene Identification via Genome-wide siRNA Screen
Conditions: mouse BRCA2 R2336H ES cells, olaparib, CellTiter-Glo viability; stronger effect = higher value
In short: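 Genome-wide siRNA screen (3 siRNAs/gene, 20 nM) in mouse ES cells carrying hypomorphic BRCA2 R2336H; olaparib 500 nM added 48 h post-transfection, CellTiter-Glo viability 72 h later. Normalized to plate-median negative control; MAD z-scores, gene median, seed-adjusted.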

| Sequence | z-score |
| --- | --- |
| GGUGGUUGUUAUUGAAAAGTT against Mical3 | inactive: 0.292 |
| GGCUUGUGUUUCUAUCUUUTT against Cct8 | inactive: -3.16 |
| GGUGCCUUUCUGCUUUUGATT against 9230117E20Rik | inactive: -1.32 |
| CCUUAUUUAGCUAAGCAGATT against Ran | inactive: -3.05 |
| CCAAUAACUACUCAUACCCTT against 1110015K06Rik | inactive: 0.802 |
| GGGUUUUUAUACUAGUUUGTT against Exosc4 | inactive: -1.42 |
| GGAUCCUUAAUCGAUACACTT against Gng3 | inactive: 0.459 |
| GGCACACACUGAUUUUUUUTT against Cops2 | inactive: -2.58 |
| CCAAAUUCAUUCUAGCUCGTT against Copeb | inactive: 0.474 |
| GGUCUCUUUUUGUUGUAGUTT against AI429152 | inactive: 0.936 |
| CCCUCACUUAUAGAAGAUUTT against Nat2 | inactive: -0.65 |
| CCGUAUCCAUUCUGAACGUTT against 2410081M15Rik | inactive: -0.219 |
| CCAGACUUCUUGUAGUUAUTT against Tpx2 | inactive: -1.49 |
| GGAUUCAGCAAAUGCUUCCTT against Rcor3 | inactive: 1.88 |
| CCUCUUUCUAGAGCGCAUCTT against Kcnk12 | inactive: 0.578 |
| GGUGACUACUACACGGACUTT against Cdkl1 | inactive: -0.127 |
| GGUGCAUACACUGAAGGAATT against Golga2 | inactive: -0.824 |
| CCUUUGUCCAUGUUACCGATT against Rps14 | inactive: -3.29 |
| GGUGGUAUCGAUUUUGCUUTT against Cbx7 | inactive: -0.556 |
| GCUUAAUUCUUUUCAACGUTT against Gng2 | inactive: 0.261 |
| GGAAAUUUGCCAACAUACUTT against Sah | inactive: -1.23 |
| GGCAAAUCCAAAGUUGUCUTT against 4921515A04Rik | inactive: 0.536 |

| Sequence | z-score |
| --- | --- |
| CCCGCACACCAAUUUCACGTT against Rnf128 | inactive: 0.861 |
| GGCCAACAUCAAAAUCGCCTT against Mark4 | inactive: 0.126 |
| CCAGUGGAAAUAACUUGUGTT against 2410018C17Rik | inactive: 1.05 |
| GGUUUUGACAUCACAUUCUTT against Dufd1 | inactive: -0.386 |
| GGAAAAGUAUCCAUGUCACTT against Impa1 | inactive: 0.589 |
| GGAGACAUGAUUAAAGCUATT against Ubxd3 | inactive: -0.443 |
| CCCAUCUAUUAGAAUUGAGTT against Slc4a8 | inactive: 0.994 |
| GGCAGCAUAAGAGCUGUUCTT against Idb3 | inactive: 0.459 |
| CCUUGGUCUGAUCGACUUGTT against Gadd45g | inactive: 1.81 |
| GGGAGCUAUGUUGUUAAAATT against Amotl2 | inactive: 0.392 |
| CGACCUGAAAGAUUCGGAATT against Ppara | inactive: 0.668 |
| GGCUCAACUUUUGUGAUUCTT against Olfr895 | inactive: -0.00635 |
| CGACAUCCCAAUAAACAAGTT against Lcn3 | inactive: 0.561 |
| GGAAGAUAGACUUCCUCACTT against Pfdn5 | inactive: -1.14 |
| GGAAAUCAAGAAGUUUGAATT against Gmds | inactive: -0.869 |
| GGAAUUUAAGCUGUACACATT against 1700007I06Rik | inactive: -0.674 |
| GGCAGGUAUGCAGUGAAGATT against Paqr9 | inactive: -0.56 |
| GGAAUAAGAGGAAGGUUACTT against Nanos2 | inactive: -0.18 |
| GGGCAUCCGAAUUGACUCATT against Tmem4 | inactive: -0.33 |
| GCUAAGCCCUACAUGACCATT against Plcb2 | inactive: 0.536 |
| CCACGUAUUUAAAUAGUUCTT against Gdf3 | inactive: 0.51 |
| GCAGGACCACACGUAUUCATT against BC024806 | inactive: 0.746 |

2 entries drawn at random from the list so far, as already listed:

| Sequence | z-score |
| --- | --- |
| CGACAUCCCAAUAAACAAGTT against Lcn3 | inactive: 0.561 |
| GGAAUUUAAGCUGUACACATT against 1700007I06Rik | inactive: -0.674 |

Following part:

| Sequence | z-score |
| --- | --- |
| GGUGUGACAUGGUUUGAUATT against 2610208E05Rik | inactive: -0.269 |
| GGACAUGGCCAGAUACUACTT against Npy | inactive: 0.681 |
| GCGACGCAGAGUGAGAAGATT against Cdk4 | inactive: 0.65 |
| CGGAGGAAUCACAAGUAUATT against Il23r | inactive: 0.339 |
| GGAUUCAAACAAUGAGCUCTT against BC049806 | inactive: 0.448 |
| GAGCUGGAGCAAGAAUUCGTT against 4632415L05Rik | inactive: -1.03 |
| GGGCUGAAGAUGACUUCAATT against Topors | inactive: -1.22 |
| GGACAGCAGAAGGUCUCAUTT against Pira3 | inactive: 0.227 |
| GCCGUUCCCAUUAUCGUUUTT against A930025J12Rik | inactive: 0.0734 |
| GGAAUCUCACCAAUCCAAATT against Rab14 | inactive: -0.329 |
| GCCUCUCUAUGUGCACCACTT against V1rc19 | inactive: -0.11 |
| GGUCCAGUUCCUUGACAUCTT against Ifit1 | inactive: -1.91 |
| GGAAAGCUACAUGUUGCUUTT against Prkacb | inactive: 0.504 |
| GUGCUAGAAUACUUGACAGTT against Hist1h2aa | inactive: -2.17 |
| GGACAGACACAAGAUGAGATT against 2810403A07Rik | inactive: 0.638 |
| CCUAGACAUCAGUAAUGCGTT against Zbtb17 | inactive: -0.301 |
| GGAACUGACUCUUGAAAAUTT against Cd14 | inactive: -0.736 |
| GGAAGAUGCUUUUGUAAGUTT against Smyd4 | inactive: -1.04 |
| GGAUACAAACUUAACUCAUTT against 1700029I01Rik | inactive: 0.0382 |
| GGUGCAUUUUCUAGAAUCATT against 4930550B20Rik | inactive: 0.308 |
| GGAAAAAGAACACCUUUUATT against 6330505F04Rik | inactive: -0.0394 |
| GGUUGAACAUAAGCACAAUTT against 4921511I16Rik | inactive: -0.365 |
